Measured values: article PMC7521923
No constants are given. Whether binding was seen depends on the method and setting. In cells and extracts the contact can be indirect. Some entries that bind do so weakly or less than the wild type. One block for each binder: values may come before it.

The chains behind the UniProt entries cited, without tags or fusion partners. Residues count along the entry.
UniProt Q9ULV1, residues 37-537: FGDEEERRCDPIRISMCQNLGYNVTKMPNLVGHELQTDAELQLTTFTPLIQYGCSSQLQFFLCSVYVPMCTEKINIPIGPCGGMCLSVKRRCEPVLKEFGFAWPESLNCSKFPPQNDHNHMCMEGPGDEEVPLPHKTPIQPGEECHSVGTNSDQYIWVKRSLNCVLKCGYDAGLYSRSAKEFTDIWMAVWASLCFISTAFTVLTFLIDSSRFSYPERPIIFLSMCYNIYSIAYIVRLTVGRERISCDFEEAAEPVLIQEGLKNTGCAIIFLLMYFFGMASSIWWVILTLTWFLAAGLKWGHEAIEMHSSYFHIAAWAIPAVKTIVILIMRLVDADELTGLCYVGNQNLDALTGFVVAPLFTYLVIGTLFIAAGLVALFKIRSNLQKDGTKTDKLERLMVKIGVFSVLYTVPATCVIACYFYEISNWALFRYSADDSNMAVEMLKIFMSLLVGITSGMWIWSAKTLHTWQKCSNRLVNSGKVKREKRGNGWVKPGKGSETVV
UniProt Q99835, residues 28-787: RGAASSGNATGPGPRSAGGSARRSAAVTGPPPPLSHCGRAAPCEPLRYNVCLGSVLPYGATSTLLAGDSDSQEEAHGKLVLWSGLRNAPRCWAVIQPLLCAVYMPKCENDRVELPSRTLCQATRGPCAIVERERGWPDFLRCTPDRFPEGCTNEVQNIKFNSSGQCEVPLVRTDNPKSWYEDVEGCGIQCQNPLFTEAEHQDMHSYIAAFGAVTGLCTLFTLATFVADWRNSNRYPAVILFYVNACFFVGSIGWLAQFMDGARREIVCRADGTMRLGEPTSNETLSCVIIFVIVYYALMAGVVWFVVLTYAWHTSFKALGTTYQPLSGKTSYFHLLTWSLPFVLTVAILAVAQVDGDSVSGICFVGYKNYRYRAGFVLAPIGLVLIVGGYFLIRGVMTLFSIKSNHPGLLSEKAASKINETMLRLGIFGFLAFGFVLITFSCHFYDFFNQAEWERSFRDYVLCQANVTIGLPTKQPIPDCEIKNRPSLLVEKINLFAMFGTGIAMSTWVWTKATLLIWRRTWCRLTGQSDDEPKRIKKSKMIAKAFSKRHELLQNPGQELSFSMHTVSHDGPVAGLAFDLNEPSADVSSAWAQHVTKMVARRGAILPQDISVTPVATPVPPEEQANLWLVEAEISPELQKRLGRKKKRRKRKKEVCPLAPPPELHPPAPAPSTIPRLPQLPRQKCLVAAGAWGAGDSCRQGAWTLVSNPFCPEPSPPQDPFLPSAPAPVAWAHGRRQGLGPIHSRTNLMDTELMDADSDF
UniProt Q9H461, residues 28-694: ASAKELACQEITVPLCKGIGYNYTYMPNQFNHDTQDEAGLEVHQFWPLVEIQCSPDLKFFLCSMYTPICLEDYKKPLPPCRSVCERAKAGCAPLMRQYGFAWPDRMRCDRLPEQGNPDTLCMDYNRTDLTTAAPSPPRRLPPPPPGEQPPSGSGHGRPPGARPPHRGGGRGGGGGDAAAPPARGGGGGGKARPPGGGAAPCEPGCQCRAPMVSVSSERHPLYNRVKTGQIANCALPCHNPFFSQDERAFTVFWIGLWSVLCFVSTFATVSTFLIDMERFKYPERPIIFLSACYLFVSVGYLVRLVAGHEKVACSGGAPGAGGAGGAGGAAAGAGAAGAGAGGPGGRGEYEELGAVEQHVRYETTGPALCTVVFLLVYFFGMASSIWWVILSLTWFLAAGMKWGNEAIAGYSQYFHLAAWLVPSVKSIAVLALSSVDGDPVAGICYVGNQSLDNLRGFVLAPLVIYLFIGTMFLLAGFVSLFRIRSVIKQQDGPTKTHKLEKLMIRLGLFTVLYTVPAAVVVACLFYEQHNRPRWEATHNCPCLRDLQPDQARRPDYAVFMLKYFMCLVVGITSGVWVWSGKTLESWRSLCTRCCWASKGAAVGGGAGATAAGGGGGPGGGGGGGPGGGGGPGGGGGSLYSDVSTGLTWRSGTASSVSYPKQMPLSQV
UniProt Q13467, residues 27-585: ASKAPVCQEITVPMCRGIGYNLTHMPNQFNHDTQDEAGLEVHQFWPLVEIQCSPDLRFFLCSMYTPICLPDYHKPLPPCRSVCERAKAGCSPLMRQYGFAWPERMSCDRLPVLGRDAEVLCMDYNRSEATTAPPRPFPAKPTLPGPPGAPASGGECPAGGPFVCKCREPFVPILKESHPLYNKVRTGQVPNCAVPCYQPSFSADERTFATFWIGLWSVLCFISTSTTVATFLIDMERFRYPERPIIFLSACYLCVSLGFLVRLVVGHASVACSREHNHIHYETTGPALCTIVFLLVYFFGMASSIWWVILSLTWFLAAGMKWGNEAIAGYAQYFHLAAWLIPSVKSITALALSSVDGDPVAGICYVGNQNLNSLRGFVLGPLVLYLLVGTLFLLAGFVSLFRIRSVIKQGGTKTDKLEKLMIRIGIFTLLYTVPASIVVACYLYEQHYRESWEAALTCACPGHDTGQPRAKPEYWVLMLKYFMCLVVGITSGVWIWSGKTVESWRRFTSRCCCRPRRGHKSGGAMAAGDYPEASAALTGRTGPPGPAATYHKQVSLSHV

Tests used:
Assay in all cases: co-IP; both partners expressed in transfected HEK293T cells (FZD5-USP8 also in T79KO cells and with TMEM79 overexpressed; USP8-TMEM79 in FZD null cells); NP40 lysis buffer (50 mM Tris pH 7.5, 150 mM NaCl, 1 mM EDTA, 1% NP40, 10% glycerol, 10 mM NaF); antibody-conjugated agarose beads (anti-c-Myc, anti-HA, anti-Flag M2 or anti-V5) at 4°C overnight; five washes; immunoblot
USP8 = target: T1, USP8 (UniProt P40818)
T1 sequence: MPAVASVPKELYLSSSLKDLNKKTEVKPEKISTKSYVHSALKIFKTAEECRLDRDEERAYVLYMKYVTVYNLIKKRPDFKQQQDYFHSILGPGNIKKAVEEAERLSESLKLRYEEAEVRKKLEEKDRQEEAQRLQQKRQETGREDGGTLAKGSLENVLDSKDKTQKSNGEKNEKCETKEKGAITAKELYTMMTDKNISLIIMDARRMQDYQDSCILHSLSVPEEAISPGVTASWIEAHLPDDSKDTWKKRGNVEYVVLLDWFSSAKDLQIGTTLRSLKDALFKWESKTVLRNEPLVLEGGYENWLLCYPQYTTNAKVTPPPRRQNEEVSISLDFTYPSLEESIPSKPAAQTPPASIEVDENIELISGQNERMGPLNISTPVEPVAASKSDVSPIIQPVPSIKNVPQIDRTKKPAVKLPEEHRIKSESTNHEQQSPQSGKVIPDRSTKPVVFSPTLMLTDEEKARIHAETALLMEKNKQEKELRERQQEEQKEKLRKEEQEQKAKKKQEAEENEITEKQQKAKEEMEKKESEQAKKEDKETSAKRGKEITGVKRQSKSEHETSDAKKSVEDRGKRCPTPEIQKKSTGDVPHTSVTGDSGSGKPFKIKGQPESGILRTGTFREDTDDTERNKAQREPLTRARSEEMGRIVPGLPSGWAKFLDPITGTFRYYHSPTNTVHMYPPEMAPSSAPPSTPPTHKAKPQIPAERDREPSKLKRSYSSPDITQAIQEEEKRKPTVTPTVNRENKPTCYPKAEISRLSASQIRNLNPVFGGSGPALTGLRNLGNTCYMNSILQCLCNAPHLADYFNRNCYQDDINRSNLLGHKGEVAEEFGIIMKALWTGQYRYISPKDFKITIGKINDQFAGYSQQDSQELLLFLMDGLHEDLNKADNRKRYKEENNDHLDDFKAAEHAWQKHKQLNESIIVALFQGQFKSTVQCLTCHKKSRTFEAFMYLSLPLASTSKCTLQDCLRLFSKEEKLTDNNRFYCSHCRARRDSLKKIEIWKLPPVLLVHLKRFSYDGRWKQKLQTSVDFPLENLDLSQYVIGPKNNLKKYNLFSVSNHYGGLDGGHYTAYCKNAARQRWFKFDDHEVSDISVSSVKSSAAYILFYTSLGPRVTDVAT

FZD4 (human) = FZD4 (human) (UniProt Q9ULV1)
Smoothened (SMO) = Smoothened (SMO) (UniProt Q99835)
FZD10 (human) = target: T2, FZD10 (human) (UniProt Q9ULW2)
T2 sequence: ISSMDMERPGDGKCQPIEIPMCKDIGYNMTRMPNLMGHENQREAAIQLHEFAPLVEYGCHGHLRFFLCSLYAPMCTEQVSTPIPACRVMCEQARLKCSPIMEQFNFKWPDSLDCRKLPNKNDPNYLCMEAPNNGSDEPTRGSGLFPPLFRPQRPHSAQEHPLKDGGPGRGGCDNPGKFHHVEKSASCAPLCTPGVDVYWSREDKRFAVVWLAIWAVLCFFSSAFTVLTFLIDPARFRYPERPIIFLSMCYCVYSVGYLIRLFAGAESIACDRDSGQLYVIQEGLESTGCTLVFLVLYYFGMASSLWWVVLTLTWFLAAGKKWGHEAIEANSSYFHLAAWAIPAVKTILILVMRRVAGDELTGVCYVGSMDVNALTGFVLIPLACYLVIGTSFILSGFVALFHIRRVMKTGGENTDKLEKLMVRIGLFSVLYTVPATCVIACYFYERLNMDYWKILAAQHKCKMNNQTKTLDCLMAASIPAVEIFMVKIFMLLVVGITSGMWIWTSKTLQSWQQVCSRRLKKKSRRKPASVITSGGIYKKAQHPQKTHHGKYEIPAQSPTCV

FZD8 (human) = FZD8 (human) (UniProt Q9H461)
FZD3 (human) = target: T3, FZD3 (human) (UniProt Q9NPG1)
T3 sequence: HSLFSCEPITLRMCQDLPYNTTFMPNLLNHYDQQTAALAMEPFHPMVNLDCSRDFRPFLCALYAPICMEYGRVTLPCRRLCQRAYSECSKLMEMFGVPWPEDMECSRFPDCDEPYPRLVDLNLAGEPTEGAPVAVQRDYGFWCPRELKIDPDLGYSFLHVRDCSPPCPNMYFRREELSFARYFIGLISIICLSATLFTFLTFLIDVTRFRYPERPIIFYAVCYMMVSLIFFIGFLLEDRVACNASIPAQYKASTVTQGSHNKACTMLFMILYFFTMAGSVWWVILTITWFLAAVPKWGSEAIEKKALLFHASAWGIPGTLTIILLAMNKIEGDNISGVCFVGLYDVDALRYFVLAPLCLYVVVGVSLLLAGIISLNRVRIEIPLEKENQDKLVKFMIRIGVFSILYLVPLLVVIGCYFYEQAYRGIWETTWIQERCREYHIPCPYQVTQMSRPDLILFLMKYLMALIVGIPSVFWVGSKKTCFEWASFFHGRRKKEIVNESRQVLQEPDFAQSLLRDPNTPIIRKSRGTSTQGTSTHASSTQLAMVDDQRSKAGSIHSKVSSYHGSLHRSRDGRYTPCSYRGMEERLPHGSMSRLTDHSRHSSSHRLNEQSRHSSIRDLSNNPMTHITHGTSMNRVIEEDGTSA

FZD6 (human) = target: T4, FZD6 (human) (UniProt O60353)
T4 sequence: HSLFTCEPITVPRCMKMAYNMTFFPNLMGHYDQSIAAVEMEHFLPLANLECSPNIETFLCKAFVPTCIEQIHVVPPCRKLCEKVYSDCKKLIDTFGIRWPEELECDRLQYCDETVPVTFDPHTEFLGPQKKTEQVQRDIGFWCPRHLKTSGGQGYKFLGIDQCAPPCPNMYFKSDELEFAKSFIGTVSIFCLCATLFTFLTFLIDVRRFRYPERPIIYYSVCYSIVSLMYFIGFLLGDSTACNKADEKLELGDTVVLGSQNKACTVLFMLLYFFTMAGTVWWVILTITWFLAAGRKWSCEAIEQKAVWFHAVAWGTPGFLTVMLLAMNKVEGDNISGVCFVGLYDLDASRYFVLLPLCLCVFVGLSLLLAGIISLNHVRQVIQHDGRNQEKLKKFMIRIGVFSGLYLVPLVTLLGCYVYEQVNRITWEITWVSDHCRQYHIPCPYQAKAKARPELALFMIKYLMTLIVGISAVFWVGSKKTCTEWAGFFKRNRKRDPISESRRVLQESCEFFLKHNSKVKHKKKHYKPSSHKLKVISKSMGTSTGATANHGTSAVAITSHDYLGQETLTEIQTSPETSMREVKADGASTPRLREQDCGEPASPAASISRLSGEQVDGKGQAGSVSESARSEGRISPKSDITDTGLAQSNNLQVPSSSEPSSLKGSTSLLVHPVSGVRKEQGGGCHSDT

[1] = target: FZD5 (transfected) (human) (UniProt Q13467)

binding (USP8): binds | binding (FZD4 (human)): binds | binding (Smoothened (SMO)): no binding | binding (FZD10 (human)): binds | binding (FZD8 (human)): binds | binding (FZD3 (human)): binds | binding (FZD6 (human)): binds
B1: TMEM79 (FL, full length) (protein, UniProt Q9D709 1-391)
chain: MTEPETLALLDMKEPETPEKSPPQALVLQSEEEGGTESPGTESLRVGSSVGSPIVREGPEDGPDSTISEAATLPWGTDPHPSAPLPDPPGWRDIEPEPLESEAPTKSEEPFKEDANLLPEKTVRAFVPIDLQCIERKPQEERILHRDAGPGELRNFLPARLSHPEPPERKWAEAVVRPPGRSCGGCGSCGGREALRAVASVVAALIFFPCLLYGAYAFLPFDAPRLPTMSSRLVYTLRCGVFATFPIVLGLLVYGLSLLCFSALRPFGEPRREVEIHRQYVAQSVQLFILYFFNLAVLSTYLPQDTLKLLPLLTGLFAISRLIYWLTFAVGRSFRGFGYGLTFLPLLAMLVWNLYYMFVVEPERMLTASESRLDYPDHARSVSDYRPRSWG

binding [1]: binds
B2: USP8 (enzyme, UniProt P40818 1-1118)
chain: T1 sequence
